The numbers were not newly measured in patent US20080268043A1, “Controlled Release Compositions Comprising an Antipsychotic Agent” (ELAN PHARMA INTERNATIONAL LIMITED, priority 2005, published 2008), which cites them from elsewhere.

Structures can show the parent of a compound that is named as a salt.

In data set [1] the target is adrenergic α1 receptors. The conditions noted are these: read-out: IC50 adrenergic α1 receptors; receptors in the brain.
The target of data set [2] is adrenergic α2 receptors. The conditions noted are these: read-out: IC50 adrenergic α2 receptors; receptors in the brain.

Regarding `OCCOCCN1CCN(C2=Nc3ccccc3Sc3ccccc32)CC1` [Quetiapine fumarate, 2-[2-(4-dibenzo[b,f] [1.4]thiazepin-11-yl-1-piperazinyl)ethoxy]-ethanol fumarate (2:1) (salt)], the values for the IC50 in data set [1] and in data set [2] were 94 nM and 271 nM, respectively.

In general, IC50 refers to the point on the concentration scale where inhibition reaches its midpoint.
